From the supplement of paper PMC7877785
± gives the uncertainty stated by the source. Many of these values have a large error.

Experiment: self-splicing fitness, log relative to wild type (ln ratio); higher = more splicing; Tetrahymena group I intron in knt gene, E. coli kanamycin selection, DiMSum; sequences stand for … in CUCUCU…GGAGGGAAAAGUUAUCAGGCAUGCACCUGGUAGCUAGUCUUUAAACCAAUAGAUUGCAUCGGUUUAAAAGGCAAGACCGUCAAAUUGCGGGAAAGGGGUCAACAGCCGUUCAGUACCAAGUCUCAGGGGAAACUUUGAGAUGGCCUUGCAAAGGGUAUGGUAAUAAGCUGACGGACAUGGUCCUAACCACGCAGCCAAGUCCUAAGUCAACAGAUCUUCUGUUGAUAUGGAUGCAGUUCACAGACUAAAUGUCGGUCGGGGAAGAUGUAUUCUUCUCAUAAGAUAUAGUCGGACCUCUCCUUAAUGGGAGCUAGCGGAUGAAGUGAUGCAACACUGGAGCCGCUGGGAACUAAUUUGUAUGCGAAAGUAUAUUGAUUAGUUUUGGAGUACUCGUGGUCG
In short: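 Library with all eight P1ex-region intron nucleotides randomised, intron inside the knt kanamycin-resistance gene on pET-22b(+), in E. coli BL21(DE3). Cells grew overnight at 37°C or 30°C on LB agar with or without 25 μg/mL kanamycin (plus 100 μg/mL carbenicillin, 50 μM IPTG, 0.2% rhamnose), in six replicate transformations. Pooled colonies were amplicon-sequenced on Illumina HiSeq 2500. DiMSum fitness is the error-weighted combination of wild-type-normalised replicate fold changes, kanamycin versus none.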

Row | Sequence | self-splicing fitness (ln) (30 °C) | self-splicing fitness (ln) (37 °C)
1 | UCUUAGCAAUAUUACGCAAC | -3.39 ± 1 | –
2 | GUUUAGCAAUAUUACGGGGC | – | -3.91 ± 1
3 | UCAAAGCAAUAUUACGACUU | -4 ± 0.23 | -2.36 ± 0.17
4 | AUUCAGCAAUAUUACGCCCG | – | 0.627 ± 0.59
5 | CUCGAGCAAUAUUACGCUCU | -3.31 ± 1 | -3.08 ± 1
6 | UGGGAGCAAUAUUACGAAUU | -3.82 ± 0.72 | –
7 | GCGGAGCAAUAUUACGAACU | -2.65 ± 1.1 | –
8 | AUCGAGCAAUAUUACGAAAC | – | -0.813 ± 0.69
9 | UUUGAGCAAUAUUACGGGUA | – | -2.24 ± 0.5
10 | AAGGAGCAAUAUUACGCUAG | – | -2.89 ± 0.54
11 | UGAGAGCAAUAUUACGCUCU | -2.48 ± 0.78 | -0.373 ± 0.92
12 | ACCGAGCAAUAUUACGUCCU | -1.71 ± 0.1 | -0.0861 ± 0.11
13 | CGCUAGCAAUAUUACGGGAC | -4.76 ± 0.51 | –
14 | CUAAAGCAAUAUUACGCCCC | – | -0.234 ± 1.4
15 | ACAGAGCAAUAUUACGUACA | -4.02 ± 0.59 | -2.15 ± 0.56
16 | CAGUAGCAAUAUUACGGAGC | -3.53 ± 0.54 | –
17 | UUUUAGCAAUAUUACGCAUU | -2.39 ± 0.11 | -1.27 ± 0.15
18 | CAGAAGCAAUAUUACGCGUC | -3.27 ± 1.1 | –
19 | GCGGAGCAAUAUUACGACUA | -2.02 ± 1.2 | -1.37 ± 1.2
20 | UGUGAGCAAUAUUACGGAUC | -4.47 ± 1 | 0.033 ± 0.61
21 | UAAGAGCAAUAUUACGAGAA | -1.99 ± 0.71 | –
22 | UUCUAGCAAUAUUACGAACA | -0.853 ± 0.58 | –
23 | CACUAGCAAUAUUACGCCAC | -3.13 ± 0.63 | -1.95 ± 0.58

Single records (already shown).
CUAAAGCAAUAUUACGCCCC is listed as self-splicing fitness (ln) (37 °C): -0.234 ± 1.4
UUUUAGCAAUAUUACGCAUU is listed as self-splicing fitness (ln) (30 °C): -2.39 ± 0.11; self-splicing fitness (ln) (37 °C): -1.27 ± 0.15

Later entries:

Row | Sequence | self-splicing fitness (ln) (30 °C) | self-splicing fitness (ln) (37 °C)
24 | UGCGAGCAAUAUUACGGAAU | -3.87 ± 1 | -3.23 ± 1
25 | CGGCAGCAAUAUUACGAGUA | -2.43 ± 0.53 | -3.67 ± 0.6
26 | GUUUAGCAAUAUUACGUCCC | 0.518 ± 1.1 | 0.0661 ± 0.63
27 | AUUGAGCAAUAUUACGCCGC | – | -1.7 ± 0.67
28 | ACGGAGCAAUAUUACGAAAA | 0.283 ± 0.64 | –
29 | CUGUAGCAAUAUUACGCGCC | -3.01 ± 0.84 | –
30 | CAAAAGCAAUAUUACGUAAG | -0.419 ± 0.047 | 0.0644 ± 0.059
31 | CACGAGCAAUAUUACGGGCA | – | -2.94 ± 1
32 | AACGAGCAAUAUUACGCAGU | -2.87 ± 0.23 | -2.52 ± 0.29
33 | GUACAGCAAUAUUACGGGGC | -3.74 ± 0.35 | -2.77 ± 0.47
34 | AACUAGCAAUAUUACGUAUG | -3.11 ± 0.11 | -1.22 ± 0.11
35 | UCCGAGCAAUAUUACGGUAC | – | -1.84 ± 0.66
36 | CACCAGCAAUAUUACGGGUA | -0.28 ± 0.045 | -0.404 ± 0.055
37 | AUUUAGCAAUAUUACGGCAC | – | 0.656 ± 0.6
38 | AUGUAGCAAUAUUACGAUAU | -0.909 ± 0.11 | 0.222 ± 0.14
39 | UGUUAGCAAUAUUACGCACA | -1.21 ± 0.12 | -0.549 ± 0.11
40 | GCACAGCAAUAUUACGAUGC | -3.17 ± 0.2 | -1.88 ± 0.17
41 | GCAGAGCAAUAUUACGUCAG | -4.7 ± 0.51 | –
42 | CGAAAGCAAUAUUACGACGG | 0.0482 ± 0.089 | 0.569 ± 0.12
43 | UGGGAGCAAUAUUACGCCGG | -2.45 ± 0.23 | -2.19 ± 0.31
44 | CGAGAGCAAUAUUACGUCCA | -4.13 ± 1 | –
45 | AUCGAGCAAUAUUACGCUCG | – | -2.31 ± 0.78
46 | AGAGAGCAAUAUUACGGUGA | – | -1.69 ± 0.81
